Data source: PubChem BioAssay AID504804 (Drosophila RNAi Screening Center, 2011)
Purpose: 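dsRNAs that improve Kc cell survival under doxorubicin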 (primary screen). Cells: Drosophila Kc cells. Reagents: long dsRNA against Drosophila genes, 0.5 µg dsRNA per well. Time to read-out: 96 h (48 h knock-down, then 48 h drug). Conditions: doxorubicin 5 µg/ml for 48 h, added 48 h after dsRNA. Read-out: 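Viability measured as cellular ATP by luminescence after 48 h knock-down then 48 h doxorubicin at 5 µg/ml; unnormalised plate counts for each replicate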. Scale: raw ATP luminescence: higher = more viable cells, protection from doxorubicin. Rule for the call: 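Active when both duplicate wells lie at least 2 SD above the plate mean and protection is confirmed by rescreening and independent dsRNAs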.
The deposit covers about 19,000 reagents; this is a random part of those that have a named target and a result. In the full data, 47 (0.25%) got an active call. 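Signals are raw, not normalised; exact z-scores behind calls not deposited; actives needed confirmation, so some wells reaching 2 SD are inactive.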 The numbers tell different reagents against one gene apart.

no.	gene	reagent no.	SD above plate mean	raw ATP luminescence, replicate 1	raw ATP luminescence, replicate 2	call
1	Ent3	1		58573	55377	inactive
2	side-VIII	1		1.05e5	60097	inactive
3	side-VIII	2		16900	24377	inactive
4	side-VIII	3		2.01e5	1.63e5	inactive
5	Kdm3	1		60597	55927	inactive
6	rsh	1		2.23e5	2.20e5	inactive
7	rsh	2		1.19e5	1.19e5	inactive
8	Rab26	1		23313	17773	inactive
9	Rab26	2		63133	51030	inactive
10	Rab26	3		60307	55110	inactive
11	mri	1		47600	50820	inactive
12	CG33252	1		2.70e5	2.87e5	inactive
13	ari-1	1		3.88e5	3.03e5	inactive
14	CG32767	1		51320	46180	inactive
15	CG17193	1		43680	23660	inactive
16	ana2	1		66630	61877	inactive
17	FLASH	1		2.22e5	2.11e5	inactive
18	CG34301	1		68960	55223	inactive
19	Brr2	1		30900	23003	inactive
20	CG15099	1		87517	61693	inactive
21	CG7448 (retired record)	1		20627	17837	inactive
22	Evi5	1		3.04e5	2.95e5	inactive
23	Nepl6	1		1.59e5	1.98e5	inactive
24	CG32087	1		94903	68793	inactive
25	Megf8	1		1.07e5	81070	inactive
26	CG14625	1		56100	45020	inactive
27	mRpS33	1		1.21e5	1.19e5	inactive
28	CG15343	1		46850	42900	inactive
29	CG42258	1		3.37e5	3.09e5	inactive
30	CG42258	2		1.04e5	1.09e5	inactive
31	BBS1	1		1.93e5	1.93e5	inactive
32	CG14903	1		1.32e5	65160	inactive
33	CG15025	1		79410	83900	inactive
34	Cul5	1		61410	43950	inactive
35	CG5776	1		1.11e5	94100	inactive
36	Arp3	1		49113	36380	inactive
37	gwl	1		60347	56940	inactive
38	IntS8	1		47250	49233	inactive
39	Uba3	1		61733	58790	inactive
40	Kr-h2	1		25173	29167	inactive
41	CG34002	1		91543	85913	inactive
42	CG34002	2		51013	53967	inactive
43	Obp99c	1		59580	58820	inactive
44	LamC	1		53577	49447	inactive
45	CG14658	1		70067	66510	inactive
46	Cep97	1		88367	76070	inactive
47	alpha-Est6	1		44250	37277	inactive
48	Or43a	1		56317	98220	inactive
49	mRpS25	1		3.32e5	3.28e5	inactive
50	CycD	1		3.01e5	2.67e5	inactive
51	AP-1mu	1		49950	31450	inactive

Next part; the last 15 above are carried over.
no.	gene	reagent no.	SD above plate mean	raw ATP luminescence, replicate 1	raw ATP luminescence, replicate 2	call
37	gwl	1		60347	56940	inactive
38	IntS8	1		47250	49233	inactive
39	Uba3	1		61733	58790	inactive
40	Kr-h2	1		25173	29167	inactive
41	CG34002	1		91543	85913	inactive
42	CG34002	2		51013	53967	inactive
43	Obp99c	1		59580	58820	inactive
44	LamC	1		53577	49447	inactive
45	CG14658	1		70067	66510	inactive
46	Cep97	1		88367	76070	inactive
47	alpha-Est6	1		44250	37277	inactive
48	Or43a	1		56317	98220	inactive
49	mRpS25	1		3.32e5	3.28e5	inactive
50	CycD	1		3.01e5	2.67e5	inactive
51	AP-1mu	1		49950	31450	inactive
52	CG5235	1		40163	37577	inactive
53	Cluap1	1		3.63e5	3.46e5	inactive
54	Sbf	1		60653	29633	inactive
55	CG13116	1		38577	51680	inactive
56	CG14356	1		1.18e5	89410	inactive
57	Acsx3	1		44897	49037	inactive
58	Osi3	1		69747	54823	inactive
59	CG6550	1		65130	35100	inactive
60	pzg	1		29550	23773	inactive
61	CG9948	1		41487	41453	inactive
62	CG14740	1	at least 3 SD above plate mean	1.09e5	55227	active
63	CG3698	1		27860	32037	inactive
64	CG10185	1		70830	82180	inactive
65	mRpS18A	1		60883	58373	inactive
66	TpnC73F	1		45507	33443	inactive
67	CG13251	1		61950	54527	inactive
68	Fancl	1		63117	59643	inactive
69	CG34115	1		80037	80367	inactive
70	lectin-28C	1		39120	67873	inactive
71	aos	1		42690	43397	inactive
72	Zip71B	1		81540	91357	inactive
73	Cep164	1		3.51e5	2.98e5	inactive
74	Nha1	1		1.25e5	81880	inactive
75	CG18746	1		67080	54107	inactive
76	mRpS14	1		3.09e5	3.08e5	inactive
77	CG42715 (retired record)	1		74437	99243	inactive
78	mus302	1		33813	32330	inactive
79	CG6191	1		44033	52883	inactive
80	CG13577	1		54187	51510	inactive
81	et	1		3.17e5	3.11e5	inactive
82	Gr66a	1		70307	69567	inactive
83	CG17985	1		44093	70773	inactive
84	MFS18	1	at least 2 SD above plate mean	1.51e5	1.09e5	active
85	CG14154	1		81853	53097	inactive
86	CG10338	1		34370	21180	inactive
87	janA	1		53670	52970	inactive
88	CG11327	1		32063	34837	inactive
89	CG14971	1		33187	32410	inactive
90	meigo	1		46410	57980	inactive
91	Hr83	1		61567	68837	inactive
92	CG11586	1		35340	36617	inactive
93	CG42565	1		59503	50833	inactive
94	CG4882	1		58493	51060	inactive
95	CG3088	1		41100	30740	inactive
96	CG8539	1		37157	34690	inactive
97	exd	1		4.33e5	3.39e5	inactive
98	schlank	1		45410	44740	inactive
99	schlank	2		39860	45500	inactive
100	Rpp14b	1		64780	63520	inactive
101	LSm3	1		67920	63300	inactive
102	KLHL18	1	at least 3 SD above plate mean	1.04e5	54990	inactive
103	CG16868	1		61600	70423	inactive
104	tkv	1		2.41e5	2.68e5	inactive
105	tkv	2		1.15e5	73933	inactive
106	CG3323	1		45060	43820	inactive
107	PTPMT1	1		57020	78750	inactive
